Experimental data from paper doi:10.1101/2022.09.30.510086.
These are yes or no findings as the source states them, for the method shown. In cells and extracts the contact can be indirect. Some entries that bind do so weakly or less than the wild type. Tags and fused reporters may be left off the sequences shown.

T1: HA-STIL (SCL/TAL1 interrupting locus protein) (UniProt Q15468)
T1 sequence: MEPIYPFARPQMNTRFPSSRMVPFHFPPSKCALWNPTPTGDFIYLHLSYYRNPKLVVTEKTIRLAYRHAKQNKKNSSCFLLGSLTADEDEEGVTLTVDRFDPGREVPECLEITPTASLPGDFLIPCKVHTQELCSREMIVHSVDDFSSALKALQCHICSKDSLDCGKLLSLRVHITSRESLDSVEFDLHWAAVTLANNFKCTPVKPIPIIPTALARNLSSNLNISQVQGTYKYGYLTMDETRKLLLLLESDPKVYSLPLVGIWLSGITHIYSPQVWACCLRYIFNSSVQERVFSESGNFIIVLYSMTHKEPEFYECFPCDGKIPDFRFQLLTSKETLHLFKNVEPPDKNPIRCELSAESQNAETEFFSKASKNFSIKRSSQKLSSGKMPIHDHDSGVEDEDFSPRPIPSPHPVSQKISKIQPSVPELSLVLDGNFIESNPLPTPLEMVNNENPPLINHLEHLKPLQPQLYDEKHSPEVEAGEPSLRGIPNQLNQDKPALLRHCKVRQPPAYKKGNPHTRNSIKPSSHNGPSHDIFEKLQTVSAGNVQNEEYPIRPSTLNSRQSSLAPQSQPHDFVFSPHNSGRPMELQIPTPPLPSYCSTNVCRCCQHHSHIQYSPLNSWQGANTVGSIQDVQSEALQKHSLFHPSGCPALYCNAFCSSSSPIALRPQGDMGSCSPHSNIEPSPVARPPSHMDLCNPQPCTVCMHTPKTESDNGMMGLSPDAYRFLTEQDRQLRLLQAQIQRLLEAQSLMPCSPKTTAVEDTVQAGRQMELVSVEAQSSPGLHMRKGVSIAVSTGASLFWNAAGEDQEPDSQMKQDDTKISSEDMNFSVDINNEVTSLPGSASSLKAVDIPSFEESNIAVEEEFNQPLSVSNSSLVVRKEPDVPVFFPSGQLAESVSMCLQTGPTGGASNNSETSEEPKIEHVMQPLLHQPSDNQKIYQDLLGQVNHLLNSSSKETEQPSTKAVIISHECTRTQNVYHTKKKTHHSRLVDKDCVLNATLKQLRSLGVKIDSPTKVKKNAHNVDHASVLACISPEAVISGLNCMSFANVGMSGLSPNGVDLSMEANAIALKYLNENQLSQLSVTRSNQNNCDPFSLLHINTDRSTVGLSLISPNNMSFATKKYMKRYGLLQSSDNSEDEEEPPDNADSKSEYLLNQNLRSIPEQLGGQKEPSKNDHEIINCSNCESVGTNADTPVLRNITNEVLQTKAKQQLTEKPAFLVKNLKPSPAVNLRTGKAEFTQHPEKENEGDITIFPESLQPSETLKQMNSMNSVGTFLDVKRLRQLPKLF

T2: GFP-tagged McIdas (not stated (human or mouse cDNA cloned)) (UniProt D6RGH6)
T2 sequence: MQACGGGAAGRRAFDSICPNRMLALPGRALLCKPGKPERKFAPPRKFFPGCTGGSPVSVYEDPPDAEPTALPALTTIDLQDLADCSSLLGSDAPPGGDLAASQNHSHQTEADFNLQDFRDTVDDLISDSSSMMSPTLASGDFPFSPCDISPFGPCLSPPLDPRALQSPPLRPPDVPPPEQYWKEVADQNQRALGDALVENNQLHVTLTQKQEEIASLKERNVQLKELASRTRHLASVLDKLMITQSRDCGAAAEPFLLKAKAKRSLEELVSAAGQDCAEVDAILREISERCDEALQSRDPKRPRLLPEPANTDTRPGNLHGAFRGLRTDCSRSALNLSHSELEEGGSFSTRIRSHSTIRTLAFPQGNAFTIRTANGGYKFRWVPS

T3: McIdas-HA (UniProt D6RGH6)
T3 sequence: T2 sequence

B1: myc-PLK4 (Polo-like kinase 4) (enzyme, UniProt O00444 1-970)
chain: MATCIGEKIEDFKVGNLLGKGSFAGVYRAESIHTGLEVAIKMIDKKAMYKAGMVQRVQNEVKIHCQLKHPSILELYNYFEDSNYVYLVLEMCHNGEMNRYLKNRVKPFSENEARHFMHQIITGMLYLHSHGILHRDLTLSNLLLTRNMNIKIADFGLATQLKMPHEKHYTLCGTPNYISPEIATRSAHGLESDVWSLGCMFYTLLIGRPPFDTDTVKNTLNKVVLADYEMPSFLSIEAKDLIHQLLRRNPADRLSLSSVLDHPFMSRNSSTKSKDLGTVEDSIDSGHATISTAITASSSTSISGSLFDKRRLLIGQPLPNKMTVFPKNKSSTDFSSSGDGNSFYTQWGNQETSNSGRGRVIQDAEERPHSRYLRRAYSSDRSGTSNSQSQAKTYTMERCHSAEMLSVSKRSGGGENEERYSPTDNNANIFNFFKEKTSSSSGSFERPDNNQALSNHLCPGKTPFPFADPTPQTETVQQWFGNLQINAHLRKTTEYDSISPNRDFQGHPDLQKDTSKNAWTDTKVKKNSDASDNAHSVKQQNTMKYMTALHSKPEIIQQECVFGSDPLSEQSKTRGMEPPWGYQNRTLRSITSPLVAHRLKPIRQKTKKAVVSILDSEEVCVELVKEYASQEYVKEVLQISSDGNTITIYYPNGGRGFPLADRPPSPTDNISRYSFDNLPEKYWRKYQYASRFVQLVRSKSPKITYFTRYAKCILMENSPGADFEVWFYDGVKIHKTEDFIQVIEKTGKSYTLKSESEVNSLKEEIKMYMDHANEGHRICLALESIISEEERKTRSAPFFPIIIGRKPGSTSSPKALSPPPSVDSNYPTRERASFNRMVMHSAASPTQAPILNPSMVTNEGLGLTTTASGTDISSNSLKDCLPKSAQLLKSVFVKNVGWATQLTSGAVWVQFNDGSQLVVQAGVSSISYTSPNGQTTRYGENEKLPDYIKQKLQCLSSILLMFSNPTPNFH
B2: HA-STIL (SCL/TAL1 interrupting locus protein) (protein, UniProt Q15468 1-1287)
chain: T1 sequence
B3: SAS6-GFP (Spindle assembly abnormal protein 6 homolog) (protein, UniProt Q6UVJ0 1-657)
chain: MSQVLFHQLVPLQVKCKDCEERRVSIRMSIELQSVSNPVHRKDLVIRLTDDTDPFFLYNLVISEEDFQSLKFQQGLLVDFLAFPQKFIDLLQQCTQEHAKEIPRFLLQLVSPAAILDNSPAFLNVVETNPFKHLTHLSLKLLPGNDVEIKKFLAGCLKCSKEEKLSLMQSLDDATKQLDFTRKTLAEKKQELDKLRNEWASHTAALTNKHSQELTNEKEKALQAQVQYQQQHEQQKKDLEILHQQNIHQLQNRLSELEAANKDLTERKYKGDSTIRELKAKLSGVEEELQRTKQEVLSLRRENSTLDVECHEKEKHVNQLQTKVAVLEQEIKDKDQLVLRTKEAFDTIQEQKVVLEENGEKNQVQLGKLEATIKSLSAELLKANEIIKKLQGDLKTLMGKLKLKNTVTIQQEKLLAEKEEKLQKEQKELQDVGQSLRIKEQEVCKLQEQLEATVKKLEESKQLLKNNEKLITWLNKELNENQLVRKQDVLGPSTTPPAHSSSNTIRSGISPNLNVVDGRLTYPTCGIGYPVSSAFAFQNTFPHSISAKNTSHPGSGTKVQFNLQFTKPNASLGDVQSGATISMPCSTDKENGENVGLESKYLKKREDSIPLRGLSQNLFSNSDHQRDGTLGALHTSSKPTALPSASSAYFPGQLPNS
B4: SAS6-SNAP-Flag (protein, UniProt Q6UVJ0 1-657)
chain: B3 chain

What was measured:
Test in all cases: co-IP
[1] = target: T1, HA-STIL (SCL/TAL1 interrupting locus protein)
[2] = target: T2, GFP-tagged McIdas (not stated (human or mouse cDNA cloned))
McIdas-HA = target: T3, McIdas-HA

Row | Molecule | binding [2] | other results
1 | GFP-tagged McIdas (from UniProt D6RGH6 1-385) | – | binding [1]: no binding
2 | B1 | binds | –
3 | B2 | no binding | –
4 | B3 | – | binding (McIdas-HA): no binding
5 | B4 | no binding | –
